Experiment [1] has as its target Lck (UniProt P06239). Kind of experiment: co-immunoprecipitation, Western blot against Lck. In general terms: A western blot detects proteins with antibodies after separation by electrophoresis.
The target in experiment [2] is Lck (UniProt P06239). Put plainly: co-immunoprecipitation from 293TM cells with recombinant HER-2 beads, Western blot against Lck, densitometry.

The chains behind the UniProt entries cited, without tags or fusion partners.
UniProt P06239: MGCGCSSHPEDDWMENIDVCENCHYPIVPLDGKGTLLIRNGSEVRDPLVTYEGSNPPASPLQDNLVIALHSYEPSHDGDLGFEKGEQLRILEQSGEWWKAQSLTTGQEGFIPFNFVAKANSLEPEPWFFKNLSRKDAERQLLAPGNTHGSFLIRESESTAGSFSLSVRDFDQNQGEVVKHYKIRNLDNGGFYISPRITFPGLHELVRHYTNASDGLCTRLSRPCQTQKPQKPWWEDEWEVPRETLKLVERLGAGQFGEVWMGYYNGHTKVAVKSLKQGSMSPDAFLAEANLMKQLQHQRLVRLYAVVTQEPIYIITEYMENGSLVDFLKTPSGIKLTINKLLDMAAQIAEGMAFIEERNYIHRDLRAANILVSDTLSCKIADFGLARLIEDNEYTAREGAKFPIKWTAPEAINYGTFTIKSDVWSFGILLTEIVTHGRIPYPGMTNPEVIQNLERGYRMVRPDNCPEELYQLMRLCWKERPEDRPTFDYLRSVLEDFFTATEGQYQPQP

These are yes or no findings as the source states them, for the method shown. Binding seen in cells or lysates may run through a third protein. Some binding calls cover weakened binding; strength is not graded here.

B1: Anti-HER-2 DARPin Tri-TAC (full-length Trifunctional T cell-antigen coupler, configuration 1) (protein)
chain: MSRGSDLGKKLLEAARAGQDDEVRILMANGADVNAKDEYGLTPLYLATAHGHLEIVEVLLKNGADVNAVDAIGFTPLHLAAFIGHLEIAEVLLKHGADVNAQDKFGKTAFDISIGNGNEDLAEILQKLNEQKLISEEDLNPGGGGGSGGGGSGGGGSGGGGSGSMDIQMTQTTSSLSASLGDRVTISCRASQDIRNYLNWYQQKPDGTVKLLIYYTSRLHSGVPSKFSGSGSGTDYSLTISNLEQEDIATYFCQQGNTLPWTFAGGTKLEIKGGGGSGGGGSGGGGSGGGGSEVQLQQSGPELVKPGASMKISCKASGYSFTGYTMNWVKQSHGKNLEWMGLINPYKGVSTYNQKFKDKATLTVDKSSSTAYMELLSLTSEDSAVYYCARSGYYGDSDWYFDVWGQGTTLTVFSTSGGGGSLESGQVLLESNIKVLPTWSTPVQPMALIVLGGVAGLLLFIGLGIFFCVRCRHRRRQAERMSQIKRLLSEKKTCQCPHRFQKTCSPI
Consider B1, for which the binding result with Lck [1] and in the experiment with Lck [2] was “binds” throughout.

The values are drawn from patent US20200392247A1.
